From patent US20200040045

By UniProt entry, the sequences of proteins in these tests, tags left out. Residues count along the entry.
UniProt Q6VWJ6, 293-573: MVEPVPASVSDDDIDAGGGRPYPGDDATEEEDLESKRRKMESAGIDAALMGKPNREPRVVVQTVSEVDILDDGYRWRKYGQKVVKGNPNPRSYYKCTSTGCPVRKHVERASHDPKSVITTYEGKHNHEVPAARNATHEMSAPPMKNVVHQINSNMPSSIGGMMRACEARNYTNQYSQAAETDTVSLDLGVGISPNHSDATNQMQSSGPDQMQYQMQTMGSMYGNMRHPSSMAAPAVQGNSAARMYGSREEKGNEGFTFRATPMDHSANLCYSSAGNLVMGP

Target: SUSIBA1 (Hordeum vulgare) (UniProt Q6VWJ6)
Assay: EMSA
Conditions: purified recombinant protein, protein details: overexpressed in and purified from E. coli, label: 32P

“CTGTAAAAAAAATTTAGCCT / GACATTTTTTTTAAATCGGA [SP8a M]”: no binding (A-stretch substitution, variant of 6-SFT SP8a).

“TTATTAAAAAAATATATACG / AATAATTTTTTTATATATGC [W-box M]”: no binding (A-stretch substitution, variant of 6-SFT W-box).

“TTATTTTGACCATATATACG / AATAAAACTGGTATATATGC [6-SFT W-box]”: binds (strong binding to the W-box).

The exact form of at least one protein or probe is not confirmed. Negatives hold for the conditions tested.
